The results in this text go back to PMC9283515.

Sequences of proteins named here, by UniProt entry; tags and fusion partners are left off. A change or cut given only in a name is not applied to a line headed by its entry.
UniProt H1VPS8: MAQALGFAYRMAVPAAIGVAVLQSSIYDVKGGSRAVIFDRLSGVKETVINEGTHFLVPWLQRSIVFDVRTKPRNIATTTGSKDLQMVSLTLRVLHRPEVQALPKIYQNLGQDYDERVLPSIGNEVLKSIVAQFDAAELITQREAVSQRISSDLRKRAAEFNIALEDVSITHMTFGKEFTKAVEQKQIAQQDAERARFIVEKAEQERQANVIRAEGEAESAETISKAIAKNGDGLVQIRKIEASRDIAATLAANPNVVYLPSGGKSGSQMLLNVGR
UniProt H1VAN0: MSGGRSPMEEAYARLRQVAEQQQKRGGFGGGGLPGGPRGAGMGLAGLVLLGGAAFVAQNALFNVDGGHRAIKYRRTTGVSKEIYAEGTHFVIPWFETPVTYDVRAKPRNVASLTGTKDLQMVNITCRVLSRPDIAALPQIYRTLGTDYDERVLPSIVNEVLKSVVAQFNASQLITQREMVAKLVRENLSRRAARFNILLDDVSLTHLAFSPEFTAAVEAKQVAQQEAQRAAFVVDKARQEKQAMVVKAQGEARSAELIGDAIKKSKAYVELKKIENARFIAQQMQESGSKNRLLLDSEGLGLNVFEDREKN

The target of this assay is ChPhb1 (yeast two-hybrid fusion) (C. higginsianum) (UniProt H1VPS8). Kind of assay: two-hybrid.

These are yes or no findings as the source states them, for the method shown. A result given as binding can be weak or reduced; the word gives no strength.

As to “ChPhb2 (yeast two-hybrid fusion) (from UniProt H1VAN0)”, the binding entry is recorded as “binds”.
